Assay results published in paper PMC4900541.
No constants are given. Whether binding was seen depends on the method and setting. In cells and extracts the contact can be indirect. Some results given as binding are weak or reduced against the parent protein; the word gives no strength.

By UniProt entry, the sequences of proteins in these tests, tags left out.
UniProt Q7Z2H8: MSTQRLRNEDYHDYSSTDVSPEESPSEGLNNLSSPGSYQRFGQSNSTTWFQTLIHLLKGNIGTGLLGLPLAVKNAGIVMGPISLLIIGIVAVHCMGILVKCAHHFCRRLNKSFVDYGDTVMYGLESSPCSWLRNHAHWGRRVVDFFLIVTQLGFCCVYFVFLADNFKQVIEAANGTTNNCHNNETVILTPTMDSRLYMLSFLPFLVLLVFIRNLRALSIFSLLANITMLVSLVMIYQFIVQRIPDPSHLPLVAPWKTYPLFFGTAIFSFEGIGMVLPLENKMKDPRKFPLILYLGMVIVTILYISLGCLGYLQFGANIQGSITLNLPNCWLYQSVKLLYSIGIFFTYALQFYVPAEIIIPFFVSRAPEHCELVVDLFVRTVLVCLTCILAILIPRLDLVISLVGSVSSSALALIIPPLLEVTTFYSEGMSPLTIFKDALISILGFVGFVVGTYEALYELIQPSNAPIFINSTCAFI

Target: T1, FLCN (folliculin) (human (endogenous in HEK293)) (UniProt Q8NFG4)
T1 sequence: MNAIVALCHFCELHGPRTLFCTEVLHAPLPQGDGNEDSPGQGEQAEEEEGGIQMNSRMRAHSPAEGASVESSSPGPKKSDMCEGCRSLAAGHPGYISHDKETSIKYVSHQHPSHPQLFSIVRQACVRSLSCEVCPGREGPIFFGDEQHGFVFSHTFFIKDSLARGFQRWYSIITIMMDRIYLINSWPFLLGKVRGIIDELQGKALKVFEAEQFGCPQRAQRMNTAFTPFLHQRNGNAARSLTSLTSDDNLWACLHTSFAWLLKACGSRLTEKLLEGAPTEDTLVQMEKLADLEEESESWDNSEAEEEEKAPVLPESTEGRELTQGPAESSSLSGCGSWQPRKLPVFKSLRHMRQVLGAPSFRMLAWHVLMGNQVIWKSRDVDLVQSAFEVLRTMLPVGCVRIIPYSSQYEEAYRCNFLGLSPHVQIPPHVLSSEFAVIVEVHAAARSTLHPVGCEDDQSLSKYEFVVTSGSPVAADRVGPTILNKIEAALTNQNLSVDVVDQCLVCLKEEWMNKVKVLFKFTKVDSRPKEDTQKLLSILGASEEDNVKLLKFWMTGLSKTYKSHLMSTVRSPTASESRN
Assay: co-IP; lysate of HEK293 cells stably expressing EGFP-PAT1 (NP40 lysis buffer: 0.5% NP-40, 25 mM Tris, 200 mM NaCl, 200 mM KCl, pH 7.4); immunoprecipitated with anti-GFP polyclonal antibody or anti-FLCN, Protein A/G PLUS-Agarose, 4°C, western blot; both directions; also with or without amino acids (S3 Fig), interaction said not to be affected

Substance: EGFP-PAT1 fusion protein (Proton-Assisted Amino Acid Transporter 1) (from UniProt Q7Z2H8 1-476)
- binding: binds
